Experimental data reported in US8512707B2 (Seattle Genetics, Inc., priority 2006, dated 2013).

How the values were obtained:
[1] = general procedure: Fmoc solid-phase peptide synthesis; Phenylalanine-2-chlorotrityl resin (0.55 mmol/gram); HATU/DIEA (solid phase); DEPC/DIEA (solution); conditions: for final HPLC purity: Reversed-phase HPLC analysis; for isolated yield: on resin loading
[2] = general procedure: Fmoc solid-phase peptide synthesis; 2-chlorotrityl resin; HATU/DIEA (solid phase); DEPC/DIEA (solution); conditions: whole synthesis, scale 0.044 mmol
[3] = whole synthesis, scale of the general procedure 0.55 mmol
[4] = whole synthesis, scale 0.053 mmol
[5] = whole synthesis, scale 0.088 mmol

## Maleimidocaproyl-Val-Cit-PABC-MMAF
[1]; [3]
  final HPLC purity: 98% pure
[1]; [4]
  isolated yield: 21%
  isolated mass: 15 mg

## Maleimidocaproyl-Val-Cit-PABC-MMAF-OMe
[1]; conjugation step
  conjugation yield: 52%
  final HPLC purity: 95%

## MeVal-Val-Dil-Dap-Phe
[2]
  isolated mass: 27 mg
[1]; [3]
  final HPLC purity: 95%
[1]; whole synthesis, scale 0.044 mmol
  isolated yield: 73%

## Maleimidocaproyl-Val-Cit-MMAF
[1]; [3]
  final HPLC purity: 98%
[1]; [5]
  isolated yield: 27%
  isolated mass: 28 mg
